Source: paper PMC7282668
Numbering of substitutions follows the chain as printed. Numbers in names are those of the source. No constants are given. Whether binding was seen depends on the method and setting. For some assays here: Binding can be weak; no strength is given. Sequences can lack the tags named with a protein. For some assays here: In cells and extracts the contact can be indirect. Values belong to the molecule of their own block, whether it stands above or below them.

What was measured:
[1] = molecular target: T1, ALP1, full length, yeast two-hybrid fusion (Arabidopsis thaliana) (UniProt Q94K49); experiment: two-hybrid; Gal4 bait and prey fusions in Y2HGold yeast; growth on -LWH (low stringency) and -LWHA (high stringency) media
T1 sequence: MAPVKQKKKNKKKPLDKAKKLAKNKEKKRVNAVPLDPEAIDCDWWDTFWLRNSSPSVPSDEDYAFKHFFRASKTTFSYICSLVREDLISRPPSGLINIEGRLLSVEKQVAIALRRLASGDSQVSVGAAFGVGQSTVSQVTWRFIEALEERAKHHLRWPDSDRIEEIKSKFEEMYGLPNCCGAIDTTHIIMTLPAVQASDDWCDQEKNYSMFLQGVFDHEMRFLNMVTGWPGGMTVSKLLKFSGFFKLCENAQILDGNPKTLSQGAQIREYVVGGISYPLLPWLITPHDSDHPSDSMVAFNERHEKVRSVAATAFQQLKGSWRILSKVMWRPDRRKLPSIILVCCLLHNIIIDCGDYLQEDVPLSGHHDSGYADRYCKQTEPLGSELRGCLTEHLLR

[2] = molecular target: T2, EMF2, BiFC split YFP fusion (Arabidopsis thaliana) (UniProt Q8L6Y4); experiment: split reporter; BiFC with split YFP fusions in N. benthamiana leaf epidermis after Agrobacterium infiltration; confocal microscopy
T2 sequence: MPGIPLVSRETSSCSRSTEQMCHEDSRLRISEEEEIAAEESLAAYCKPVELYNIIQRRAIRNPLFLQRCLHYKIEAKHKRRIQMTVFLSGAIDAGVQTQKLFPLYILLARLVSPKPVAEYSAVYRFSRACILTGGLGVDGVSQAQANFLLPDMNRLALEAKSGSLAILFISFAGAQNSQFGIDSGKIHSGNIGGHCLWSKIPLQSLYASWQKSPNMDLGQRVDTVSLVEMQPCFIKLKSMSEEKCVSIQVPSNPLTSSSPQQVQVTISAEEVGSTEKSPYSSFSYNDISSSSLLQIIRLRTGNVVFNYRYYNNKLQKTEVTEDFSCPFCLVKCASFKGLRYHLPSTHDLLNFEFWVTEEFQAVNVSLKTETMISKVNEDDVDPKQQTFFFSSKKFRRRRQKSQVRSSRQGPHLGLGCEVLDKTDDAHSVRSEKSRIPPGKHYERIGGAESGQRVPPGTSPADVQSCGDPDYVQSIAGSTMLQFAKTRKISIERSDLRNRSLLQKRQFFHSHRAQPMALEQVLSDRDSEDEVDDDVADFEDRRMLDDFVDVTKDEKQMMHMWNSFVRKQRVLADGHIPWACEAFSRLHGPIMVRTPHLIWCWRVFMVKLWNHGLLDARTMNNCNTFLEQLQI

[3] = molecular target: T3, FIE, BiFC split YFP fusion (Arabidopsis thaliana) (UniProt Q9LT47); experiment: as above
T3 sequence: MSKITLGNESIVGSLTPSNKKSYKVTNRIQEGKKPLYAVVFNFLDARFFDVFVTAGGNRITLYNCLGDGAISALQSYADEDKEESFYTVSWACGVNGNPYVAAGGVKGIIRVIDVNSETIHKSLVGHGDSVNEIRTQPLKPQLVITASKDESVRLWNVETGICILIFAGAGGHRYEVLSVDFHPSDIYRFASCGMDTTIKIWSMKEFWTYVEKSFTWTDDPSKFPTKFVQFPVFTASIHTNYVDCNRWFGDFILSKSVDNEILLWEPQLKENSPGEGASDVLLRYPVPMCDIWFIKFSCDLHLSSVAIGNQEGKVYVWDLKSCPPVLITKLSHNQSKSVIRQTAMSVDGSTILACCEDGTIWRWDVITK

[4] = molecular target: T4, CLF, BiFC split YFP fusion (Arabidopsis thaliana) (UniProt P93831); experiment: as above
T4 sequence: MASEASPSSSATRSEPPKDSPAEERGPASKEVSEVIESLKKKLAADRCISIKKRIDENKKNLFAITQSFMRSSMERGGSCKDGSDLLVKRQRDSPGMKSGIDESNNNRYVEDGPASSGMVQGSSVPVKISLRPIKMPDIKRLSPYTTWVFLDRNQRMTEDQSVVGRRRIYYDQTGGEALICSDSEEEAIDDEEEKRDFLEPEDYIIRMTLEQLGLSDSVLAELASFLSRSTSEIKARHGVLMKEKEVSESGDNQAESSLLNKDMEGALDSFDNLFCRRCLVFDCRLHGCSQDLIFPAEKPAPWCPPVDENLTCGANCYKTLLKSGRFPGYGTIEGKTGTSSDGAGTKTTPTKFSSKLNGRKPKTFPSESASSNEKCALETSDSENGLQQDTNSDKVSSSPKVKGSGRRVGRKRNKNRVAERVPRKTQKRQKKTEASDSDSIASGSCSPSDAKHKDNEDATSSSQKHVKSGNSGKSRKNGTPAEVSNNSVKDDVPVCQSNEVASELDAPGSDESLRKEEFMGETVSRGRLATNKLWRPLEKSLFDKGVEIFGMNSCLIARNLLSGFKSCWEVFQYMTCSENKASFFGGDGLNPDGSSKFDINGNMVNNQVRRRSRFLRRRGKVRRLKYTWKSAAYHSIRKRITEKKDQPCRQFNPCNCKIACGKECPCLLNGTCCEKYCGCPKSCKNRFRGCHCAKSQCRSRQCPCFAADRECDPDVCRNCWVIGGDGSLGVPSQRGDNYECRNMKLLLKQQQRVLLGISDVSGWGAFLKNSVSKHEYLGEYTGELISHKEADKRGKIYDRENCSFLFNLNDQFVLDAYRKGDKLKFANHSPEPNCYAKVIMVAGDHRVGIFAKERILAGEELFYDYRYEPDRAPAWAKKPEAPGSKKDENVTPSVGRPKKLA

[5] = molecular target: T5, SWN, BiFC split YFP fusion (Arabidopsis thaliana) (UniProt Q9ZSM8); experiment: as above
T5 sequence: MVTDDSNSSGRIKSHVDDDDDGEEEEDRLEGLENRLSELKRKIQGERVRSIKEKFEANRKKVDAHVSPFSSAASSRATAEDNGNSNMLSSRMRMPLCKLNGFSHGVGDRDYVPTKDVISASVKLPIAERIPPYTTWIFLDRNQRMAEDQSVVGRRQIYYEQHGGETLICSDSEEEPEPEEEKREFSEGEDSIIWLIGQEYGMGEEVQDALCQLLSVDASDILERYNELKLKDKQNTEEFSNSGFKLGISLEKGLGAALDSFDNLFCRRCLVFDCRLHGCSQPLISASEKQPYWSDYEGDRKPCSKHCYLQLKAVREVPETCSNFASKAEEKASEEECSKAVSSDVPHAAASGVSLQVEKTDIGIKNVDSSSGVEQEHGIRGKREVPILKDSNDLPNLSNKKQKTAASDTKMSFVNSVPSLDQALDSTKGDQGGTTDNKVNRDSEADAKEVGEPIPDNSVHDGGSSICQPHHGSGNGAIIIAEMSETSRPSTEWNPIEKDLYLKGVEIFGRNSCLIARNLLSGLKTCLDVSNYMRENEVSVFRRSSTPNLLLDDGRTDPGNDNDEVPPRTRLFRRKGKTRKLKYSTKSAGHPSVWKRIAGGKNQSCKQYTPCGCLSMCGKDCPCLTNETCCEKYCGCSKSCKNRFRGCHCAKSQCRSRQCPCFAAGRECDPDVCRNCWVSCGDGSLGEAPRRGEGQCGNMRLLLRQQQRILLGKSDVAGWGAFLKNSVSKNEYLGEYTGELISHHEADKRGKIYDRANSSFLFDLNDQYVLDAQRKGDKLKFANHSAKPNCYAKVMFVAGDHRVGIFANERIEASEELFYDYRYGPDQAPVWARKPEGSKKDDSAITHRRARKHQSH

[6] = molecular target: T6, LHP1, BiFC split YFP fusion (Arabidopsis thaliana) (UniProt Q946J8); experiment: as above
T6 sequence: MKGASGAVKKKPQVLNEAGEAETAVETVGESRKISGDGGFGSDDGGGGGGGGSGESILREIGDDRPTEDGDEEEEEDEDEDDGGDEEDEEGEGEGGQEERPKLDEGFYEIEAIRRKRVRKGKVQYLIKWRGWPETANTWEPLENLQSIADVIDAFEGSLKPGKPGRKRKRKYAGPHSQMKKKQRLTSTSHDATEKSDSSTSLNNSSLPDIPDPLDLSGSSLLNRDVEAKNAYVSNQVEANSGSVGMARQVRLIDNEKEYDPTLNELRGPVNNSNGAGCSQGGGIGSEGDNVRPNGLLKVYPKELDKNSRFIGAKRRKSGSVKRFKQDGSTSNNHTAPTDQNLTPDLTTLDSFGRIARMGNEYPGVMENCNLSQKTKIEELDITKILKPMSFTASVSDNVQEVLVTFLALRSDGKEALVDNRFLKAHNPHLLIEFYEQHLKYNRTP

[7] = molecular target: T7, ALP1-nYFP (35S::ALP1-nYFP), BiFC fusion (Arabidopsis thaliana) (UniProt Q94K49); experiment: as above
T7 sequence: T1 sequence

[8] = molecular target: ALP2, BiFC split YFP fusion (Arabidopsis thaliana); experiment: as above

binding [1]: binds
Molecule: ALP2 C-terminal portion (amino acids 171-261), yeast two-hybrid fusion (Arabidopsis thaliana) (domain or fragment)

binding [2]: no binding
binding [3]: no binding
binding [4]: no binding
binding [5]: no binding
binding [6]: no binding
binding [7]: binds
Molecule: ALP2, BiFC split YFP fusion (Arabidopsis thaliana)

binding [8]: no binding
B1: ALP1-1 (G273E) variant of ALP1, BiFC split YFP fusion (protein, UniProt Q94K49 1-396)
chain: T1 sequence with G273E
